Results published in patent publication US20230226099A1, “INHALABLE FORMULATION” (AALTO UNIVERSITY FOUNDATION SR, priority 2020, published 2023).
At least one structure is not confirmed: it was looked up by name or label, or the drawing left a doubt.

Assays:
Pseudomonas aeruginosa = assay: Antibiotic resistance profile of strains; format: cell-based; conditions: strain 5539
[1] = system: MDR-Acinetobacter baumannii; assay: Antibiotic resistance profile of strain; format: cell-based; conditions: strain 5542

SMILES	Antibiotic resistance (category) (Pseudomonas aeruginosa)	Antibiotic resistance (category) [1]
C[C@@H](O)[C@H]1C(=O)N2C(C(=O)O)=C(SCCN=CN)C[C@H]12 [Imipenem]	resistant	
C[C@H]1COc2c(N3CCN(C)CC3)c(F)cc3c(=O)c(C(=O)O)cn1c23 [Levofloxacin]		Resistant to Amikacin, Amoxicillin-clavulanate, Ampicillin,
CN(C)c1ccc(O)c2c1C[C@H]1C[C@H]3[C@H](N(C)C)C(O)=C(C(N)=O)C(=O)[C@@]3(O)C(O)=C1C2=O [Minocycline]		Resistant to Amikacin, Amoxicillin-clavulanate, Ampicillin,
